Measured values published in patent publication US20070161007.
Negatives hold for the conditions tested. For some of these results: Tags and fusion partners may be left off the protein sequences shown.

Amino acid sequences for entries named in this document (tags omitted). A change or cut given only in a name is not applied to a line headed by its entry.
UniProt P14385: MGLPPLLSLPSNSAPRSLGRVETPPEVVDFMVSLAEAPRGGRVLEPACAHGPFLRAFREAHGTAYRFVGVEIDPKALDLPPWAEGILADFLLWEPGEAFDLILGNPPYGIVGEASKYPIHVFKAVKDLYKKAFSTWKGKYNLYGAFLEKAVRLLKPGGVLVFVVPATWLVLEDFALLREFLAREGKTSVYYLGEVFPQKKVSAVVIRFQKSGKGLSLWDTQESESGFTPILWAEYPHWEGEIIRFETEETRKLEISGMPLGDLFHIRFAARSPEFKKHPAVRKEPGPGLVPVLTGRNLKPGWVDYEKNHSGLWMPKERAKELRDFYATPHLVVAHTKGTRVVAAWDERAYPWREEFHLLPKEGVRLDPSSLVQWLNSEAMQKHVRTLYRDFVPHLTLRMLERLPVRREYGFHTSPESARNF

Columns and labels:
[1] = target: M.TaqI DNA methyltransferase (UniProt P14385); experiment: activity assay; settings: purified recombinant protein, protein details: New England Biolabs, label: 5'-32P on target strand
[2] = target: T1, M.EcoRI DNA methyltransferase (UniProt P00472); experiment: activity assay; settings: purified recombinant protein, protein details: New England Biolabs, label: 5'-32P on target strand
T1 sequence (looked up, limits assumed): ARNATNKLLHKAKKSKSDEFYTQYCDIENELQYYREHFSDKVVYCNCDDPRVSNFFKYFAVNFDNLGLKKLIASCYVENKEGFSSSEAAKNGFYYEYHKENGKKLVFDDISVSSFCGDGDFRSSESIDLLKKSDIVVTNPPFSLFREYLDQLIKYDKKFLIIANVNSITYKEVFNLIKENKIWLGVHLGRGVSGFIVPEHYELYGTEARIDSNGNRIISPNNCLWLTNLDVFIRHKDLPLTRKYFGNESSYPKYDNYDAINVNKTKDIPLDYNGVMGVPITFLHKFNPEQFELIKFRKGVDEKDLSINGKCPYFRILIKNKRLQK

Sequence: TGAATCTCGAGCACCC / GGGTGCTCGAGATTCAAA [M.TaqI 16-mer duplex]
- activity on this sequence ([1]; DPAGE shift, alkylation by cofactor analogs 3, 24a, 24b, 56, pH 6.0, 10 mM Mg(OAc)2, 37 C): active

Sequence: TGAATCTCGAGCACCC / GGGTGCTCGAGATTCAAA [M.TaqI duplex premethylated with SAM]
- activity on this sequence ([1]; N6-methyladenine at TCGA (enzymatic), no alkylation by 56 (50 uM) after SAM premethylation, activity not binding, variant of M.TaqI 16-mer duplex): not active

Sequence: TGAATGAATTCGACCC / GGGTCGAATTCATTCAAA [M.EcoRI 16-mer duplex]
- activity on this sequence ([2]; DPAGE shift, alkylation by cofactor analogs 3, 24a, 24b, 56, pH 7.4, EDTA, second slower adduct seen): active

Sequence: TGAATGAATTCGACCC / GGGTCGAATTCATTCAAA [M.EcoRI duplex premethylated with SAM]
- activity on this sequence ([2]; N6-methyladenine at GAATTC (enzymatic), no alkylation by 56 (50 uM) after SAM premethylation, activity not binding, variant of M.EcoRI 16-mer duplex): not active
